For 11 compounds, T/C and survivor count results are on record in PubChem BioAssay AID248 (DTP/NCI, 2004).

The list shows only some results of the screen, not a fair sample: its compounds were picked by chemical class. Not every dose and run of a compound is shown. T/C is the treated group as % of the vehicle group. Some entries give survivors of the animals treated and no T/C: the source holds a T/C of zero for them, seemingly a mark for toxic or unscored doses. Some survivor counts are full or nearly so, which does not show that the dose was tolerated: the source hardly ever lists a survival T/C far under the control, and the zero likely stands for such cases as well. Counts of survivors are from the toxicity check (mostly the fifth day) where no day follows; animals may have died later. Schedules are NCI's codes, read here as Q, the interval in days (D) or hours (H), X, the number of doses. Some doses were run more than once; their values stand side by side, smallest first. Additions like (4×) stand for listed records that agree. Some metal complexes and salts are drawn in pieces, as in the source, so charges may not balance. Where survival is the endpoint, this PubChem deposit counts one and a half times the control or more as active, and values a quarter to a half above the control carry no call in these data; other NCI protocols may use other cut-offs. Some T/C values carry the count of animals alive at the toxicity check (mostly the fifth day); without a count or a note in brackets, all were alive then.

The subject of the assay is L1210 leukemia ip in BDF1 mice, survival T/C. The assay is described as follows: NCI In Vivo Anticancer Drug Screen. Data for tumor model L1210 Leukemia (intraperitoneal) in B6D2F1 (BDF1) mice. Particulars: T/C endpoint: mean survival time, higher T/C = longer survival.
Where [1] appears, read: dose: 50.0 mg/kg/injection, schedule: Q01DX001 (ip), vehicle: saline.
[2] abbreviates: dose: 100.0 mg/kg/injection, schedule: Q01DX001 (ip), vehicle: saline.
Setting [3] is: dose: 100.0 mg/kg/injection, schedule: Q01DX009 (ip), vehicle: saline.
Setting [4] is: dose: 200.0 mg/kg/injection, schedule: Q01DX001 (ip), vehicle: saline.
Where [5] appears, read: dose: 200.0 mg/kg/injection, schedule: Q01DX009 (ip), vehicle: saline.
Where [6] appears, read: dose: 100.0 mg/kg/injection, schedule: Q04DX003 (ip), vehicle: Klucel (hydroxypropylcellulose) (HPC).
Setting [7] is: dose: 400.0 mg/kg/injection, schedule: Q04DX003 (ip), vehicle: Klucel (hydroxypropylcellulose) (HPC).
Where [8] appears, read: dose: 75.0 mg/kg/injection, schedule: Q01DX001 (ip), vehicle: water.
[9] abbreviates: dose: 150.0 mg/kg/injection, schedule: Q01DX001 (ip), vehicle: water.
[10] abbreviates: dose: 100.0 mg/kg/injection, schedule: Q04DX003 (ip), vehicle: saline.
The mark [11] stands for this setting: dose: 200.0 mg/kg/injection, schedule: Q04DX003 (ip), vehicle: saline.
Setting [12] is: dose: 400.0 mg/kg/injection, schedule: Q04DX003 (ip), vehicle: saline.

Consider `NCCCC(N)C(=O)O.NP(=O)(O)N(CCCl)CCCl`, for which the T/C was 112 % of control (dose: 25.0 mg/kg/injection, schedule: Q01DX001 (ip), vehicle: saline); 106 % of control (dose: 25.0 mg/kg/injection, schedule: Q01DX009 (ip), vehicle: saline); 96 % of control [5 of 6 alive] under setting [1]; 106 % of control (dose: 50.0 mg/kg/injection, schedule: Q01DX009 (ip), vehicle: saline); 106 and 118 % of control under setting [2]; 121 % of control [4 of 6 alive] under setting [3]. Further, the T/C under setting [4] is 118 % of control. Further, the survivor count is 2 of 6 under setting [5] and 2 of 4 (dose: 400.0 mg/kg/injection, schedule: Q01DX001 (ip), vehicle: saline).

Consider `O=C(CCCN1CCC(OC(=O)C(O)(c2ccccc2)c2ccccc2)CC1)c1ccc(F)cc1`, for which the T/C under setting [6] was 97 % of control and the T/C under setting [7] is 102 % of control.

Regarding `COc1cc(NC(=O)NP(=O)(Nc2ccccc2)Nc2ccccc2)c(OC)cc1Cl`, the T/C (dose: 50.0 mg/kg/injection, schedule: Q01DX001 (ip), vehicle: alcohol) is 102 % of control; the T/C (dose: 100.0 mg/kg/injection, schedule: Q01DX001 (ip), vehicle: alcohol) is 102 % of control; the T/C (dose: 200.0 mg/kg/injection, schedule: Q01DX001 (ip), vehicle: alcohol) is 102 % of control; the T/C (dose: 400.0 mg/kg/injection, schedule: Q01DX001 (ip), vehicle: alcohol) is 96 % of control.

As for `C1CN1`, the T/C is, setting by setting: (dose: 0.78 mg/kg/injection, schedule: Q01DX009 (iv), vehicle: saline) 102 % of control; (dose: 1.56 mg/kg/injection, schedule: Q01DX009 (iv), vehicle: saline) 102 % of control; (dose: 3.12 mg/kg/injection, schedule: Q01DX009 (iv), vehicle: saline) 108 % of control; (dose: 9.38 mg/kg/injection, schedule: Q01DX001 (ip), vehicle: water) 96 % of control [5 of 6 alive]; (dose: 15.0 mg/kg/injection, schedule: Q01DX001 (ip), vehicle: saline) 103 % of control; (dose: 18.75 mg/kg/injection, schedule: Q01DX001 (ip), vehicle: water) 95 % of control. In addition, the T/C (dose: 30.0 mg/kg/injection, schedule: Q01DX001 (ip), vehicle: saline) was 106 % of control; the T/C (dose: 60.0 mg/kg/injection, schedule: Q01DX001 (ip), vehicle: saline) was 107 % of control; the T/C under setting [8] was 104 and 105 % of control; the T/C under setting [9] is 100 and 109 % of control. Besides, the survivor count is listed as 1 of 6 (dose: 6.25 mg/kg/injection, schedule: Q01DX009 (iv), vehicle: saline); 1 of 6 (dose: 12.5 mg/kg/injection, schedule: Q01DX009 (iv), vehicle: saline); 2 of 6 (dose: 25.0 mg/kg/injection, schedule: Q01DX009 (iv), vehicle: saline); 0 of 6 (dose: 37.5 mg/kg/injection, schedule: Q01DX001 (ip), vehicle: water); 0 of 6 (dose: 50.0 mg/kg/injection, schedule: Q01DX009 (iv), vehicle: saline); 0 of 6 under setting [8]. Besides, the survivor count is, setting by setting: (dose: 75.0 mg/kg/injection, schedule: Q01DX001 (sc), vehicle: saline) 0 of 6; (dose: 100.0 mg/kg/injection, schedule: Q01DX009 (iv), vehicle: saline) 0 of 6; (dose: 100.0 mg/kg/injection, schedule: Q04DX002 (ip), vehicle: saline with Tween-80) 0 of 3; under setting [9], 0 of 6; (dose: 150.0 mg/kg/injection, schedule: Q01DX001 (sc), vehicle: saline) 0 of 6; (dose: 200.0 mg/kg/injection, schedule: Q01DX009 (iv), vehicle: saline) 0 of 6. The survivor count was 0 of 3 (dose: 200.0 mg/kg/injection, schedule: Q04DX002 (ip), vehicle: saline with Tween-80); 0 of 6 (2×) and 1 of 6 (dose: 300.0 mg/kg/injection, schedule: Q01DX001 (ip), vehicle: water); 0 of 6 (dose: 300.0 mg/kg/injection, schedule: Q01DX001 (sc), vehicle: saline); 0 of 3 (dose: 400.0 mg/kg/injection, schedule: Q04DX002 (ip), vehicle: saline with Tween-80).

For the compound `O=C(CCCN1CCC(n2c(=O)n(CO)c3ccccc32)CC1)c1ccc(F)cc1`, the T/C runs as follows: under setting [6], 100 % of control; (dose: 133.0 mg/kg/injection, schedule: Q04DX003 (ip), vehicle: Klucel (hydroxypropylcellulose) (HPC)) 115 % of control; (dose: 200.0 mg/kg/injection, schedule: Q04DX003 (ip), vehicle: Klucel (hydroxypropylcellulose) (HPC)) 111 and 129 % of control; under setting [7], 106 % of control [4 of 6 alive]. Moreover, the survivor count (dose: 300.0 mg/kg/injection, schedule: Q04DX003 (ip), vehicle: Klucel (hydroxypropylcellulose) (HPC)) is given as 4 of 6.

For the compound `O=C(N(CCCl)CCCl)C(F)(F)F`, the T/C was 106 % of control (dose: 100.0 mg/kg/injection, schedule: Q01DX009 (ip), vehicle: Klucel (hydroxypropylcellulose) (HPC)); 127 % of control under setting [3]; 100 % of control under setting [10]; 121 % of control (dose: 200.0 mg/kg/injection, schedule: Q01DX009 (ip), vehicle: Klucel (hydroxypropylcellulose) (HPC)); 125 % of control under setting [5]; 95 % of control under setting [11]. For the same compound, the T/C (dose: 250.0 mg/kg/injection, schedule: Q01DX009 (ip), vehicle: saline) was 138 % of control; the T/C (dose: 400.0 mg/kg/injection, schedule: Q01DX009 (ip), vehicle: Klucel (hydroxypropylcellulose) (HPC)) was 130 % of control; the T/C under setting [12] is 95 % of control.

As for `CCOP(=O)(Nc1cccc(C(F)(F)F)c1)OCC`, the T/C runs as follows: (dose: 100.0 mg/kg/injection, schedule: Q01DX001 (ip), vehicle: carboxymethylcellulose (CMC)) 94 % of control; (dose: 200.0 mg/kg/injection, schedule: Q01DX001 (ip), vehicle: carboxymethylcellulose (CMC)) 100 % of control; (dose: 400.0 mg/kg/injection, schedule: Q01DX001 (ip), vehicle: carboxymethylcellulose (CMC)) 97 % of control.

For the compound `O=c1cc(CN2CCN(CCCl)CC2)[nH]c(=O)[nH]1`, the T/C reads like this: under setting [10], 90 % of control [3 of 4 alive]; under setting [11], 101 % of control. Moreover, under setting [12], the survivor count is given as 4 of 4.

`[Co].[N-]=[N+]=N.[N-]=[N+]=N.[N-]=[N+]=N.[N-]=[N+]=N.c1ccc([As+](c2ccccc2)(c2ccccc2)c2ccccc2)cc1`: the survivor count is, setting by setting: under setting [1], 2 of 6; under setting [2], 0 of 6; under setting [4], 0 of 6.

On to `CCN(CC)CCOC(=O)C(O)(c1ccccc1OC)c1ccccc1OC`, for which the T/C (dose: 75.0 mg/kg/injection, schedule: Q01DX001 (ip), vehicle: saline) was 98 % of control.

As for `COP(O)OP(O)CC(C)=O` (stereo not drawn), the T/C (dose: 75.0 mg/kg/injection, schedule: Q04DX002 (ip), vehicle: saline with Tween-80) is 94 % of control; the T/C (dose: 150.0 mg/kg/injection, schedule: Q04DX002 (ip), vehicle: saline with Tween-80) was 94 % of control; the T/C (dose: 300.0 mg/kg/injection, schedule: Q04DX002 (ip), vehicle: saline with Tween-80) was 102 % of control.
